Measured values taken from PubChem BioAssay AID2685 (National Center for Advancing Translational Sciences (NCATS), 2010).
This is one part of the list. These are further read-outs of the screen, such as a control signal, another cell line or another target. No call is given for them. Compounds called inactive in the main read-out are mostly missing here. Words in brackets tell the shape of the fitted curve; partial curves, single points and poor fits give uncertain potencies.

Assay: qHTS Assay for Lipid Storage Modulators in Drosophila S3 Cells;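 for cell number change: cells counted by Cell Tracker Red CMTPX staining in the red channel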
Settings: BODIPY lipid droplet fluorescence, 18-24 h; for cell number change: measured here: cell count max response, cells fed with added oleic acid
Procedure, shortened: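 Drosophila S3 cells loaded with oleic acid (400 uM, as added) and compounds at several concentrations; lipid droplets imaged by 488-nm laser-scanning cytometry, 500–530 nm intensity and object ratio to cell channel. Percent activity normalized to 20 uM Triacsin C.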

[1] = measured here: lipid fluorescence (Fed channel) AC50, cells fed with added oleic acid
[2] = measured here: cell number channel AC50, cells fed with added oleic acid

Compound | cell number change [%] | AC50 [1] | AC50 [2]
Cn1c(CNC(=O)c2ccc3c(c2)OCO3)nnc1SCC(=O)Nc1ccccc1Cl | 19.2 | 9.2 µM [rising, partial curve, poor fit] | –
COC(=O)c1scc2c(Oc3ccccc3)cc(C(F)(F)F)nc12 | 30.4 | 16.4 µM [rising, single point] | 18.4 µM [rising, single point]
COc1ccc2c(c1)[nH]c1c(=O)n(Cc3ccccn3)cnc12 | -33.5 | 0.651 µM [rising, full curve] | 25.9 µM [falling, partial curve, poor fit]
COc1ccc(NC(=O)CS(=O)CC(=O)Nc2cccnc2)cc1 (centres undefined) | 17.4 | 6.51 µM [falling, single point] | –
O=C(O[C@H]1[C@H](Cc2ccccc2)NS(=O)(=O)[C@H]2C[C@@H]3C=C[C@]12O3)c1ccc([N+](=O)[O-])cc1 | 1.08 | 2.59 µM [rising, full curve] | –
Cc1ccc(N/C=C(/C#N)c2ccsc2)cc1 | -8.56 | 0.651 µM [rising, single point] | 0.00461 µM [falling, full curve, poor fit]
C/C(CC(=O)Nc1cccc(F)c1)=N\NC(=O)c1ccncc1 | -7.65 | – | –
O=C(Cc1cccs1)Nc1ccccc1C(=O)O | – | – | 3.26 µM [falling, partial curve, poor fit]
CCN(CC(=O)Nc1ccc(N2CCOCC2)cc1)C(=O)c1ccc(C#N)cc1 | -22 | – | –
CCc1ccc2oc(C(=O)NCc3ccncc3)c(C)c2c1 | -26.6 | 29.1 µM [falling, single point] | –
O=C1CCCc2nc(N3CCCCC3)sc21 | – | 0.058 µM [falling, full curve, poor fit] | –
CC(=O)c1ccccc1C(=O)N1CCCC(N2CCN(Cc3ccc4c(c3)OCO4)CC2)C1 (centres undefined) | 35.6 | – | –
Clc1ccccc1CSc1ncccn1 | 6.56 | 29.1 µM [falling, single point] | –
Cc1c(OCC(=O)N2CCC(C(N)=O)CC2)ccc2c1oc(=O)c1ccccc12 | 2.94 | 1.03 µM [falling, full curve] | –
Oc1ccc(C(=S)N2CCN(Cc3ccccc3)CC2)cc1 | -9.87 | 1.3 µM [falling, full curve, poor fit] | –
CCCCCCc1nnc(NC(=O)OCC)s1 | 11 | 29.1 µM [rising, single point] | –
CC(C)Sc1nnc([C@H](C)NC(=O)OC(C)(C)C)o1 | – | 0.259 µM [falling, full curve, poor fit] | –
CCOc1ccc(CCNC(=O)C2CCN(C(=O)N(C)C)CC2)cc1OCC | 14.8 | 29.1 µM [rising, single point] | –
CCOCCCN(C(=O)CCC(=O)Nc1cc(C)on1)C(C(=O)NC(C)(C)C)c1ccccc1Cl (centres undefined) | -8.26 | – | –
COc1cc(S(=O)(=O)Nc2ccccc2C)ccc1Cl | -68.4 | 29.1 µM [falling, single point] | 32.6 µM [falling, single point]
COc1cc(OC)cc(C(=O)Nc2ccccc2S(=O)(=O)N2CCCC2OC(C)=O)c1 (centres undefined) | -1.89 | 10.3 µM [falling, single point] | –

Compound | cell number change [%] | AC50 [1] | AC50 [2]
Cc1ccc(-c2nnc(NC(=O)CCS(=O)(=O)c3ccc(F)cc3)o2)c(C)c1 | 24.5 | – | –
CCn1cc(C(=O)NCCCOC(C)C)c(=O)c2cc(S(=O)(=O)N3CCC(C)CC3)ccc21 | 10.5 | 5.8 µM [falling, single point] | –
CCCN(CCC)Cc1c(C(=O)N/N=C/C(C)=C\c2ccco2)nnn1-c1nonc1N | – | 1.64 µM [falling, full curve, poor fit] | –
O=C(COc1ncnc2ccccc12)NCc1ccc2c(c1)OCO2 | 49.4 | – | 29.1 µM [rising, single point]
CC(=O)Nc1cccc2c1Cc1ccccc1-2 | -2.47 | 29.1 µM [rising, single point] | –
CCC(CO)Nc1ncnc2onc(-c3ccc(F)cc3)c12 (centres undefined) | -3.52 | – | –
O=C1CCNc2c(Cl)cccc21 | – | 3.66 µM [falling, single point] | –
Cc1sc2ncnc(NCC(O)c3ccc([N+](=O)[O-])cc3)c2c1C (centres undefined) | 1.3 | 18.4 µM [falling, partial curve] | –
Cn1c(SCCC#N)nnc1-c1ccc(F)cc1 | -46.1 | 0.731 µM [falling, full curve] | 0.461 µM [falling, full curve]
O=C(c1ccccc1)c1nn(-c2ccccc2)c(=O)cc1C(F)(F)F | 30.1 | 36.6 µM [rising, partial curve, poor fit] | 0.146 µM [rising, full curve, poor fit]
C/C(=N\NC(=O)COc1ccc(C(C)(C)C)cc1)c1ccc(N2CCOCC2)cc1 | -14.4 | 0.461 µM [rising, full curve] | 2.06 µM [rising, partial curve]
CCCC(=O)Nc1c2c(nn1-c1ccccc1)CSC2 | 3.95 | 18.4 µM [rising, partial curve] | –
O=C(NCC(=O)N1CCCCC1)c1sc2ccccc2c1Cl | -13.7 | – | –
c1ccc(COc2ccccc2CNC23CC4CC(CC(C4)C2)C3)cc1 | -22.5 | 29.1 µM [falling, single point] | –
CCC(C)NC(=O)c1ccc(C(=O)c2ccccc2)cc1 (centres undefined) | -46.8 | 4.11 µM [falling, full curve] | 0.651 µM [falling, full curve]
C=CCNC(=O)COc1coc(CN2CCN(C(=O)c3ccco3)CC2)cc1=O | 1.36 | 20.6 µM [rising, single point] | –
Cc1occc1-c1nc(-c2ccccn2)no1 | -4.8 | 2.06 µM [rising, full curve] | –
O=C1C2CCCN2C(c2ccco2)N1c1ccc(F)cc1 (centres undefined) | -22.1 | – | –
O=C(O)c1ccccc1C(=O)OCCCc1ccncc1 | 13.7 | 29.1 µM [rising, single point] | –
CCCCC(=O)NC(=S)Nc1cccc(NC(=O)CC)c1 | -16.4 | 0.116 µM [falling, full curve, poor fit] | –
N#CC1=C2SCCN2C(=O)C(C#N)C12CCCCC2 (centres undefined) | -14.5 | 7.31 µM [rising, single point] | –

Compound | cell number change [%] | AC50 [1] | AC50 [2]
COC(=O)CSc1nccc(C)n1 | -12.3 | 0.731 µM [falling, full curve] | –
Cc1ccc2c(=O)c(CN3CCCCCC3)c(C)[nH]c2c1C | -10 | 3.66 µM [rising, full curve, poor fit] | –
O=C(O)c1ccc(CS(=O)c2cccc(C(F)(F)F)c2)o1 (centres undefined) | -30.6 | 16.4 µM [falling, single point] | 16.4 µM [falling, single point]
CC(=O)O[C@H]1CC[C@]2(C)[C@H]3CC=C4[C@@H]5[C@@H](C)[C@H](C)CC[C@]5(C(=O)O)CC[C@@]4(C)[C@]3(C)CC[C@H]2C1(C)C | 21.1 | 6.51 µM [falling, partial curve, poor fit] | –
Cc1ccc(CNC(=O)COc2ccc(S(=O)(=O)N3CCOCC3)cc2)cc1 | 3.74 | 29.1 µM [rising, partial curve, poor fit] | –
CC(C)NC(=O)NC(=O)COC(=O)C1(C)CC1(Cl)Cl (centres undefined) | 37.4 | – | –
COc1cccc(NC(=O)c2cnc(SCC(=O)NCc3ccc4c(c3)OCO4)n(C)c2=O)c1 | 32.9 | 0.411 µM [rising, full curve] | 0.206 µM [rising, full curve]
CCn1cc(CN2CCCC(CNC(=O)COc3ccccc3OC)C2)c(C)n1 (centres undefined) | 15.6 | 6.51 µM [falling, single point] | –
Cc1cc(=O)oc2cc(NC(=O)c3ccc(OC(F)F)cc3)ccc12 | -1.32 | – | –
O=C(c1cc(-c2ccco2)on1)N1CCc2ccccc2C1 | -33.9 | 1.84 µM [falling, full curve] | 11.6 µM [falling, partial curve]
COc1ccccc1CNC(=O)COC(=O)c1cc(-c2ccco2)nc2ccccc12 | – | 0.517 µM [rising, single point] | –
COCC(=O)N1CCC(Oc2ccc(C(=O)NC(C)c3nccs3)cc2)CC1 (centres undefined) | 20.2 | – | 0.651 µM [rising, full curve, poor fit]
O=C(OCc1ccc([N+](=O)[O-])cc1)c1ccccn1 | -11 | 0.112 µM [falling, full curve, poor fit] | 0.112 µM [falling, full curve, poor fit]
COC(=O)c1ccc(CSc2nc3ccccc3c(=O)n2Cc2ccco2)o1 | 118 | 29.1 µM [rising, single point] | –
CCC(=O)N1N=C(c2c(O)n(C)c(=O)n(C)c2=O)CC1c1ccccc1 (centres undefined) | -6.78 | 6.51 µM [falling, single point] | 6.51 µM [falling, single point]
COc1ccc(Cl)cc1NC(=O)NCc1ccc2c(c1)OCO2 | 4.86 | – | –
CCOC(=O)CS(=O)(=O)c1ccc(O)cc1 | 8.25 | – | –
CCC(=O)NC1=C(NC(C)c2ccccc2)C(=O)c2ccccc2C1=O (centres undefined) | -53.2 | – | 16.4 µM [falling, single point]
N#Cc1c2n(cnc1=O)CCCCC2 | -76.9 | – | 8.2 µM [falling, partial curve]
Cc1ccccc1OCCC(=O)Nc1ccc(N2CCOCC2)cc1N1CCOCC1 | 175 | – | 9.2 µM [rising, partial curve]

Ordered by length of the SMILES (ascending): 3 of the compounds above.
Compound | cell number change [%] | AC50 [1] | AC50 [2]
O=C(OCc1ccc([N+](=O)[O-])cc1)c1ccccn1 | -11 | 0.112 µM [falling, full curve, poor fit] | 0.112 µM [falling, full curve, poor fit]
COC(=O)c1ccc(CSc2nc3ccccc3c(=O)n2Cc2ccco2)o1 | 118 | 29.1 µM [rising, single point] | –
Cc1ccc(CNC(=O)COc2ccc(S(=O)(=O)N3CCOCC3)cc2)cc1 | 3.74 | 29.1 µM [rising, partial curve, poor fit] | –
